Screen size: about 300,000 compounds; about 5,400 (1.8%) were called active. Inconclusive results, whose numbers are uncertain, are shown with a selection of clear calls. Calls come from the whole dose curve; tested in HEK293 cells. Where the call is inconclusive, the potency comes from a doubtful curve fit.
Experiment: qHTS for inhibitors of binding or entry into cells for Marburg Virus
Settings: Marburg virus pseudotyped entry inhibition, cell reporter; series mostly up to 37.8 µM
In the case of `O=C(CNC(c1ccccc1)c1ccccc1)Nc1ccccc1F`, the Potency is reported as inconclusive: 15.8 µM [inhibitor, single point].
For `COc1ccc2sc(NC(=O)NC(=O)c3c(Cl)cccc3Cl)nc2c1`, the Potency was “inactive”.
In the case of `c1nc(N2CCN(Cc3ccc4c(c3)OCO4)CC2)c2[nH]cnc2n1`, the Potency is reported as inconclusive: 32.6 µM [inhibitor, single point].
In the case of `COc1cccc(-c2nc(S(=O)(=O)c3ccc(C)cc3)c(N3CCCCC3)o2)c1`, the Potency is reported as “inactive”.
In the case of `Nn1c(SCC(=O)Nc2ccc(N3CCOCC3)cc2)nnc1-c1ccccc1F`, the Potency is reported as “inactive”.
With `CC(C)OC(=O)c1ccc(N2C(=O)C3CC=CCC3C2=O)cc1` (stereo not given) the Potency was “inactive”.
With `CS(=O)(=O)c1ccc(Cl)c(NC(=O)COC(=O)Cc2c[nH]c3ccccc23)c1` the Potency was “inactive”.
In the case of `Cc1cccc(C)c1OCC(O)Cn1c2ccccc2c2ccccc21` (stereo not given), the Potency is reported as inconclusive: 9.2 µM [inhibitor, partial curve].
With `O=C(N/C(=C/C=C\c1ccccc1)C(=O)N1CCOCC1)c1ccc(Br)cc1` the Potency was inconclusive: 12.6 µM [inhibitor, single point].
For `S=c1nc(C2CCCCC2)[nH]c2ccccc12`, the Potency was inconclusive: 35.5 µM [inhibitor, partial curve, poor fit].
For `Cc1ccc(NC(=O)CN(C)C(=O)COc2cccc3cccnc23)cc1`, the Potency was inconclusive: 1.58 µM [activator, partial curve, poor fit].
For `CCn1cc2nc(SCC(=O)Nc3ccccc3C(F)(F)F)n(Cc3ccc(C)cc3)c(=O)c2n1`, the Potency was inconclusive: 15.8 µM [inhibitor, partial curve, poor fit].
With `Cc1c(N=C2SCC(=O)N2/N=C\c2ccc(Br)cc2)c(=O)n(-c2ccccc2)n1C` the Potency was inconclusive: 5.62 µM [inhibitor, single point].
With `Cc1cccc(NC(=O)CSc2nnc(NC(=O)CN3CCCCC3)s2)c1` the Potency was “inactive”.
With `COc1cc(C(=O)NCc2cccc3ccccc23)cc(Cl)c1OC` the Potency was inconclusive: 18.3 µM [inhibitor, single point].
For `NNc1ncnc2c1cnn2-c1ccccc1`, the Potency was inconclusive: 35.5 µM [inhibitor, single point].
For `Cc1cc(NC(=O)NC2(C(F)(F)F)Oc3ccc(Cl)cc3O2)no1` (stereo not given), the Potency was inconclusive: 13 µM [inhibitor, partial curve, poor fit].
In the case of `CCn1cc(C(=O)N2CCN(c3cccc(C)c3C)CC2)c2cc(OC)c(OC)cc2c1=O`, the Potency is reported as “inactive”.
For `O=C(O)c1nsc(Cl)c1Cl`, the Potency was “inactive”.
For `O=C(NCC1(N2CCCCC2)CCCCC1)c1ccc(NS(=O)(=O)c2ccc(F)cc2)cc1`, the Potency was inconclusive: 10 µM [inhibitor, single point].

— PubChem BioAssay AID540276 (National Center for Advancing Translational Sciences (NCATS), 2011)
Potency is the fitted concentration of half-maximal effect.
